The values that follow come from PMC12639119.

Results are given in words; binding and its absence hold for the method and conditions named. Binding seen in cells or lysates may run through a third protein. Some results given as binding are weak or reduced against the parent protein; the word gives no strength. Where a sequence is shown, tags or fusion partners need not be part of it.

The target in experiment [1] is T1, 3xFLAG-tagged MPSR1 with the RING domain deleted (Arabidopsis thaliana) (UniProt Q9LQX2).
T1 sequence: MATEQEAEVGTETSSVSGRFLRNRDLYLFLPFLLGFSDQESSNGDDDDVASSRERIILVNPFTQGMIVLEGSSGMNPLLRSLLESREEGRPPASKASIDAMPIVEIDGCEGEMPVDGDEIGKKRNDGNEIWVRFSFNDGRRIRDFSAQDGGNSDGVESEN
The experiment can be described thus: co-IP; reverse co-IP from N. benthamiana native extract: FLAG-MPSR1ΔRING pulled down with α-FLAG beads; blot with α-GFP antibody.

Experiment [2] addresses T2, … TO RED LIGHT REDUCED 1 (SRR1) fused to GFP (Arabidopsis thaliana) (UniProt Q8GWZ6).
T2 sequence: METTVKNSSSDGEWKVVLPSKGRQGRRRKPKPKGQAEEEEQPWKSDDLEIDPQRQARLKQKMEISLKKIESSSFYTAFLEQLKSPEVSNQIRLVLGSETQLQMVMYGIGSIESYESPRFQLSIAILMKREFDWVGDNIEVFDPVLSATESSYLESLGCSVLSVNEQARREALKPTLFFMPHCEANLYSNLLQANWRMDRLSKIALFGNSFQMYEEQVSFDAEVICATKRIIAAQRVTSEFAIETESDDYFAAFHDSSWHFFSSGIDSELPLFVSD
The experiment can be described thus: co-IP; SRR1-GFP (or GFP alone) and FLAG-MPSR1ΔRING co-infiltrated into N. benthamiana leaves, harvested after 2 days; native extract (50 mM Tris-HCl pH 7.5, 100 mM NaCl, 10% glycerol, 1 mM DTT); IP with GFP-Trap beads, four washes with 0.05% Triton X-100; blot with α-FLAG.

B1: … TO RED LIGHT REDUCED 1 (SRR1) fused to GFP (protein, UniProt Q8GWZ6 1-275)
chain: METTVKNSSSDGEWKVVLPSKGRQGRRRKPKPKGQAEEEEQPWKSDDLEIDPQRQARLKQKMEISLKKIESSSFYTAFLEQLKSPEVSNQIRLVLGSETQLQMVMYGIGSIESYESPRFQLSIAILMKREFDWVGDNIEVFDPVLSATESSYLESLGCSVLSVNEQARREALKPTLFFMPHCEANLYSNLLQANWRMDRLSKIALFGNSFQMYEEQVSFDAEVICATKRIIAAQRVTSEFAIETESDDYFAAFHDSSWHFFSSGIDSELPLFVSD
As to B1, the binding result in experiment [1] is given as “binds”.

B2: 3xFLAG-tagged MPSR1 with the RING domain deleted (domain or fragment, UniProt Q9LQX2)
chain: MATEQEAEVGTETSSVSGRFLRNRDLYLFLPFLLGFSDQESSNGDDDDVASSRERIILVNPFTQGMIVLEGSSGMNPLLRSLLESREEGRPPASKASIDAMPIVEIDGCEGEMPVDGDEIGKKRNDGNEIWVRFSFNDGRRIRDFSAQDGGNSDGVESEN
B2: the binding entry in experiment [2] is given as “binds”.
